Here are results for 34 compounds from PubChem BioAssay AID1487 (National Center for Advancing Translational Sciences (NCATS), 2009).

This is one part of the list. Shown are side measurements of this screen, not its main read-out; they come without a call. Compounds called inactive in the main read-out are mostly missing here. The note in brackets gives the kind of curve behind each potency; many fits are weak.

This assay in a line: qHTS Assay for Modulators of Lamin A Splicing. As to conditions: HeLa LMNA splicing GFP/RFP minigene ratio, 48 h. The gist of the method: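 Read-out is the ratio of GFP to DsRed2 object intensity, acquired by 488 nm laser-scanning cytometry on HeLa lamin A-EGFP minigene reporter cells. Compound incubation 48 hrs at 37 °C in Opti-MEM with 2% FBS; DMSO 0.5% final.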
On the technique in general: Quantitative high-throughput screening tests each substance at several concentrations.

Setting [1] is: measured here: GFP splicing reporter channel.
Where [2] appears, read: measured here: RFP viability control channel.

For orientation: AC50 means the midpoint of the concentration-response curve, whichever way the signal moves. With `CCOC(=O)c1cc(-c2ccccc2)n(CCCC(=O)Nc2ccc(C(C)C)cc2)c1C`, the concentration at half-maximal activity (AC50) is, setting by setting: under setting [1], 35.5 µM [falling, single point]; under setting [2], 0.141 µM [falling, full curve, poor fit].

For `COc1cc(/C=C/C(=O)O)cc(S(=O)(=O)N2CCc3ccccc32)c1OC`, the AC50 under setting [1] was 35.5 µM [falling, partial curve] and the AC50 under setting [2] is 22.4 µM [falling, single point].

Regarding `O[C@H]1COC2C1OC[C@@H]2O` (some centres not stated), the AC50 is, setting by setting: under setting [1], 35.5 µM [rising, single point]; under setting [2], 0.794 µM [rising, partial curve, poor fit]. In the case of `CCCNC(=S)Nc1cccc(C(F)(F)F)c1`, the half-maximal activity concentration (AC50) was 7.08 µM [rising, partial curve] under setting [1] and 10 µM [rising, partial curve, poor fit] under setting [2].

As for `CCc1ccccc1NC(=O)c1ccc(CN2CCC(Cc3ccccc3)CC2)cc1`, the AC50 reads like this: under setting [1], 1 µM [falling, single point]; under setting [2], 0.0316 µM [falling, single point]. Turning to `COc1ccc(C(=O)CN2CCN(S(=O)(=O)c3cccc([N+](=O)[O-])c3)CC2)cc1OC`, the AC50 by setting is: under setting [1], 22.4 µM [falling, partial curve]; under setting [2], 28.2 µM [falling, single point]. Turning to `CN(Cc1ccco1)c1cc(-c2ccccc2C(F)(F)F)ncn1`, the AC50 by setting is: under setting [1], 35.5 µM [falling, single point]; under setting [2], 35.5 µM [falling, single point]. Turning to `CCOc1ccccc1NC(=S)N(Cc1cc2ccc(C)cc2[nH]c1=O)CC1CCCN1CC` (configuration not stated), the AC50 under setting [2] is 4.47 µM [rising, full curve, poor fit]. For the compound `CC(=O)N1N=C(c2ccc(C)cc2)OC1c1cccnc1` (configuration not stated), under setting [1], the AC50 is 0.00316 µM [rising, full curve, poor fit]. Same read-out and setting: the same measure for `Cc1noc(C)c1-c1nc(N2CCN(C)CC2)c2ccccc2n1`: 22.4 µM [falling, partial curve]. With `S=c1[nH]nc(C2CCCCC2)n1/N=C/C(Cl)=C\c1ccccc1`, the AC50 is 35.5 µM [falling, single point] under setting [1] and 35.5 µM [falling, single point] under setting [2]. With `CC1=CN2C(=N)/C(=C/c3ccc(Sc4ccc(Cl)cc4)o3)C(=O)N=C2S1`, under setting [2], the concentration at half-maximal activity (AC50) is 11.2 µM [rising, partial curve].

In the case of `O=S(=O)(c1ccc(F)cc1)N1CCC(O)(c2ccc3c(c2)OCO3)CC1`, the half-maximal activity concentration (AC50) runs as follows: under setting [1], 35.5 µM [rising, single point]; under setting [2], 31.6 µM [rising, single point]. For `CCOC(=O)C1CCN(C(=O)CCS(=O)(=O)c2cc3c(cc2Cl)NC(=O)CO3)CC1`, under setting [1], the AC50 was 14.1 µM [falling, single point].

Consider `COC(=O)c1ccccc1NC(=O)Cc1nc(-c2ccccc2)sc1-c1ccc(C)cc1`, for which, under setting [2], the AC50 is 22.4 µM [rising, single point]. Still for that read-out and setting: the same measure for `CN1Cc2c(N3CCOCC3)nc(SCc3ccccc3)c(C#N)c2CC1(C)C`: 3.55 µM [rising, partial curve].

On to `Cc1ccc(C)c(OCC(=O)Nc2ccc(N3CCOCC3)cc2)c1`, for which the AC50 was 1.12 µM [falling, partial curve] under setting [1] and 15.8 µM [falling, partial curve, poor fit] under setting [2]. Turning to `CCC(=O)c1ccccc1OCCSc1nc(C)cc(=O)[nH]1`, the half-maximal activity concentration (AC50) under setting [1] is 35.5 µM [falling, single point].

As for `CS(=O)(=O)N1CCN(C(=O)c2cc(-c3cccnc3)nc3ccc(Br)cc23)CC1`, under setting [2], the AC50 was 7.94 µM [rising, partial curve]. As to `O=C(N/N=C/c1ccccc1)c1ccc(N2CCOCC2)c([N+](=O)[O-])c1`, the AC50 was 0.355 µM [falling, partial curve, poor fit] under setting [1] and 5.62 µM [falling, single point] under setting [2]. In the case of `O=C(c1ccc(Cn2cc(Cl)cn2)cc1)N1CCN(c2ccccc2)CC1`, the AC50 is, setting by setting: under setting [1], 8.91 µM [rising, partial curve, poor fit]; under setting [2], 35.5 µM [rising, single point].

In the case of `O=C(NNc1c(Cl)cc(Cl)cc1Cl)c1cccc([N+](=O)[O-])c1`, under setting [2], the AC50 was 7.94 µM [rising, partial curve, poor fit].

For the compound `NC(=S)N=Nc1c(O)n(CCCl)c2ccccc12`, the AC50 under setting [1] was 35.5 µM [rising, single point].

As to `Fc1cccc(Cl)c1-c1nnc2ccc3ccccc3n12`, the AC50 under setting [1] was 22.4 µM [falling, single point]. For the compound `O=C(O)CCCCCN1C(=O)/C(=C\c2ccncc2)SC1=S`, the AC50 under setting [1] is 17.8 µM [rising, single point] and the half-maximal activity concentration (AC50) under setting [2] was 22.4 µM [rising, single point]. For `COc1ccccc1CNC(=O)c1oc2ccc(S(=O)(=O)N3CCCCC3)cc2c1C`, the half-maximal activity concentration (AC50) under setting [1] is 0.316 µM [falling, partial curve, poor fit] and the AC50 under setting [2] was 0.631 µM [falling, full curve]. Consider `CCOc1ncccc1C(=O)Oc1ccc2c(c1)OCO2`, for which the AC50 under setting [2] was 25.1 µM [rising, single point]. `NC(=O)c1ccc(C(F)(F)F)n(Cc2ccc(Cl)cc2)c1=O`: the AC50 by setting is: under setting [1], 35.5 µM [rising, single point]; under setting [2], 35.5 µM [rising, single point]. In the case of `COc1cc(O)sc1C=Nc1ccc(Cl)cc1Cl`, the AC50 under setting [1] was 5.62 µM [rising, single point].

As to `O=C(Cc1csc(-c2ccccc2)n1)Nc1ccc(C(F)(F)F)cc1`, the AC50 is 11.2 µM [rising, partial curve, poor fit] under setting [1] and 12.6 µM [rising, partial curve] under setting [2]. Consider `CCc1ccc(C2c3[nH]c4ccccc4c3CCN2C(=O)c2ccc(=O)n(C)n2)cc1` (configuration not stated), for which the AC50 was 0.0316 µM [rising, full curve, poor fit] under setting [1] and 15.8 µM [falling, single point] under setting [2].

As for `Cc1ccc2c(N)c(C)ccc2c1`, under setting [2], the AC50 is 7.08 µM [rising, partial curve, poor fit]. Same read-out and setting: then `CCc1cc2c(=O)n(Cc3ccco3)c(SCc3c(C)noc3C)nc2s1`, with 7.94 µM [rising, partial curve].

As to `CCOC(=O)c1c(C)oc2ccc(NS(=O)(=O)c3ccc4c5c(cccc35)C(=O)N4)cc12`, the AC50 is, setting by setting: under setting [1], 12.6 µM [rising, single point]; under setting [2], 35.5 µM [rising, single point].
